The supplement of paper PMC12889115
The list shows a part of the results. These are raw signals, not scaled to a control.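 Primary screen: polymyxin B was added at a level permeabilizing Salmonella outer membranes while sparing inner membranes. DMSO wells, both with and without polymyxin B, established maximum growth. Plate-to-plate variation meant each plate was ranked on its own, and the lowest-OD600 compounds were selected as hits.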

Tested on: Salmonella enterica serovar Typhimurium SL1344
Assay: bacterial growth OD600 after 18 h with compound and polymyxin B; higher = more bacterial growth (less inhibition)
Conditions: 50 µM, Mueller-Hinton broth

Row | Structure (SMILES) | bacterial growth OD600 (polymyxin B 1 µg/mL) | bacterial growth OD600 (polymyxin B 0.75 µg/mL)
1 | Cn1ccnc1CN1CCN(c2nc3nonc3nc2NCc2cccs2)CC1 | 0.958 | –
2 | Cc1ccc(CN(C)C(=O)C2CCC(=O)N(C3CCCCCC3)C2)cc1 (centres undefined) | 0.58 | –
3 | CCN(CC)C(=O)c1coc(COc2cccc(F)c2)n1 | 1.06 | –
4 | COc1ccc(CN2CCN(Cc3cnn(C)c3)CC2CCO)cc1C (centres undefined) | – | 0.824
5 | CCc1ccc(CN(C)c2nncc(-c3cccc(F)c3)n2)cc1 | – | -0.004
6 | O=C(CCCc1ccc(Cl)cc1)N1CCOc2ccc(CN3CCCC3)cc2C1 | – | 0.55
7 | O=C(c1ccc(OC2CCN(Cc3c[nH]c4ccccc34)CC2)cc1)N1CCCC1 | – | 0.626
8 | Cc1cccc(-c2cccc(NC(=O)C3CCCN3Cc3[nH]cnc3C)c2)c1 (centres undefined) | – | 0.814
9 | COc1ccc(CN2CCN(Cc3ccc(O)cc3)CC2CCO)c(C)c1C (centres undefined) | 0.936 | –
